Results as given in the supplement of paper PMC4635364.
Where a name gives a salt, the structure may show the parent alone. This is one part of the list. Single values are uncertain here, since repeats match poorly.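 ReNCell VM, a human fetal ventral-midbrain neural progenitor line, was differentiated without mitogens. Blinded raters scored images stained for doublecortin (early neurons) or tyrosine hydroxylase (dopaminergic neurons) against untreated wells (0 = no change). Scores were averaged across repeats and both raters, and compounds averaging 2 or more were selected as hits for retesting.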

Tests used:
[1] = tested on: ReNCell VM; test: neuronal differentiation score (DCX+ cell fraction vs untreated, manual image score) (score (-3 to 3)); higher = more neuronal differentiation; conditions: 2 uM, 2 weeks
[2] = tested on: ReNCell VM; test: dopaminergic neuron differentiation score (TH+ cell fraction vs untreated, manual image score) (score (0 to 3)); higher = more TH+ dopaminergic neuron differentiation; conditions: 2 uM, 4 weeks, BDNF 10 ng/ml + GDNF 10 ng/ml

CNCCC=C1c2ccccc2CCc2ccccc21
neuronal differentiation score ([1]; library: Spectrum): inactive: 0
dopaminergic neuron differentiation score ([2]; library: Spectrum): inactive: 0

CCN(CC)CCOC(=O)c1cc(Cl)c(N)cc1OC [SDZ-205,557 hydrochloride]
neuronal differentiation score ([1]; library: LOPAC): inactive: 0
dopaminergic neuron differentiation score ([2]; library: LOPAC): inactive: 0

CCCc1nc2c(C)cc(-c3nc4ccccc4n3C)cc2n1Cc1ccc(-c2ccccc2C(=O)O)cc1
neuronal differentiation score ([1]; library: Spectrum): inactive: 0
dopaminergic neuron differentiation score ([2]; library: Spectrum): inactive: 0

COC(=O)C(N)Cc1ccc(Cl)cc1 (racemic) [DL-p-Chlorophenylalanine methyl ester hydrochloride]
neuronal differentiation score ([1]; library: LOPAC): inactive: 0
dopaminergic neuron differentiation score ([2]; library: LOPAC): inactive: 0

O=C(O)c1cc(O)c2c(c1)[C@H]([C@H]1c3cc(C(=O)O)cc(O)c3C(=O)c3c(O[C@@H]4O[C@H](CO)[C@@H](O)[C@H](O)[C@H]4O)cccc31)c1cccc(O[C@@H]3O[C@H](CO)[C@@H](O)[C@H](O)[C@H]3O)c1C2=O
neuronal differentiation score ([1]; library: Spectrum): inactive: 0
dopaminergic neuron differentiation score ([2]; library: Spectrum): inactive: 0

C[C@H]1C[C@@H]2[C@H]([C@@H](O)C[C@@]3(C)[C@H]2CC[C@]3(O)C(=O)CO)[C@@]2(C)C=CC(=O)C=C12
neuronal differentiation score ([1]; library: Spectrum): inactive: 0
dopaminergic neuron differentiation score ([2]; library: Spectrum): inactive: 0

N=C(N)NC(=O)c1nc(Cl)c(N2CCCCCC2)nc1N
neuronal differentiation score ([1]; library: Spectrum): inactive: 0
dopaminergic neuron differentiation score ([2]; library: Spectrum): inactive: 0

CC(=O)c1ccc2c(c1)N(CCCN(C)C)c1ccccc1S2
neuronal differentiation score ([1]; library: Spectrum): inactive: 0
dopaminergic neuron differentiation score ([2]; library: Spectrum): inactive: 0

Cn1c([N+](=O)[O-])cnc1COC(N)=O
neuronal differentiation score ([1]; library: Spectrum): inactive: 0
dopaminergic neuron differentiation score ([2]; library: Spectrum): inactive: 0

C=C1C[C@H]2[C@@H]3C=C(C)C4=CC(=O)CC[C@]4(C)[C@H]3CC[C@]2(C)[C@@]1(OC(C)=O)C(C)=O
neuronal differentiation score ([1]; library: Spectrum): inactive: -1
dopaminergic neuron differentiation score ([2]; library: Spectrum): inactive: 0

CC1(C)O[C@@H]2C[C@H]3[C@@H]4C[C@H](F)C5=CC(=O)C=C[C@]5(C)[C@@]4(F)[C@@H](O)C[C@]3(C)[C@]2(C(=O)CO)O1
neuronal differentiation score ([1]; library: Spectrum): inactive: 0
dopaminergic neuron differentiation score ([2]; library: Spectrum): inactive: 0

O=C1CN(/N=C/c2ccc(-c3ccc([N+](=O)[O-])cc3)o2)C(=O)N1 [Dantrolene sodium]
neuronal differentiation score ([1]; library: LOPAC): inactive: 0
dopaminergic neuron differentiation score ([2]; library: LOPAC): inactive: 0

CCOc1ccc2ccccc2c1C(=O)N[C@@H]1C(=O)N2[C@@H]1SC(C)(C)[C@@H]2C(=O)O [Nafcillin sodium salt monohydrate]
neuronal differentiation score ([1]; library: Prestwick): inactive: 0
dopaminergic neuron differentiation score ([2]; library: Prestwick): inactive: 0

Cc1nc2sccn2c(=O)c1CCN1CCC(=C(c2ccccc2)c2ccc(F)cc2)CC1 [Diacylglycerol kinase inhibitor I]
neuronal differentiation score ([1]; library: LOPAC): inactive: 0
dopaminergic neuron differentiation score ([2]; library: LOPAC): inactive: 0

O/N=C/c1ccc(-c2ccc(O)c(F)c2)c(Cl)c1O
neuronal differentiation score ([1]; library: Tocriscreen): inactive: 0
dopaminergic neuron differentiation score ([2]; library: Tocriscreen): inactive: 0

COc1ccc2c3c(c(=O)n(C)c2c1OC)C=CC(C)(C)O3 [Veprisine]
neuronal differentiation score ([1]; library: Phytochemical): inactive: 0
dopaminergic neuron differentiation score ([2]; library: Phytochemical): inactive: 0

C[C@]12C=CC(=O)C=C1CC[C@H]1[C@@H]3C[C@@H](O)[C@](O)(C(=O)CO)[C@@]3(C)C[C@H](O)[C@@]12F
neuronal differentiation score ([1]; library: Spectrum): inactive: 0
dopaminergic neuron differentiation score ([2]; library: Spectrum): inactive: 0

COc1c(C2=CC(=O)N(C)C2=O)c2c(n1C)C(=O)c1ccccc1C2=O
neuronal differentiation score ([1]; library: Natural): inactive: 0
dopaminergic neuron differentiation score ([2]; library: Natural): inactive: 0

Nc1ccc(C(=O)O)cc1
neuronal differentiation score ([1]; library: Spectrum): inactive: 1
dopaminergic neuron differentiation score ([2]; library: Spectrum): inactive: 0

O=c1[nH]c(=O)n([C@H]2C[C@H](O)[C@@H](CO)O2)cc1/C=C/Br [(E)-5-(2-Bromovinyl)-2'-deoxyuridine]
neuronal differentiation score ([1]; library: LOPAC): inactive: 0
dopaminergic neuron differentiation score ([2]; library: LOPAC): inactive: 0

CCCCC(CC)COC(=O)c1ccccc1O (stereo unspecified)
neuronal differentiation score ([1]; library: Spectrum): inactive: 0
dopaminergic neuron differentiation score ([2]; library: Spectrum): inactive: 0

C=C/C(C)=C\CC1C(C)(O)CCC2C(C)(C)CCCC21C (stereo unspecified)
neuronal differentiation score ([1]; library: Spectrum): inactive: 0
dopaminergic neuron differentiation score ([2]; library: Spectrum): inactive: 0

NC(=O)c1ncn([C@@H]2O[C@H](CO)[C@@H](O)[C@H]2O)c1N
neuronal differentiation score ([1]; library: Spectrum): inactive: 0
dopaminergic neuron differentiation score ([2]; library: Spectrum): inactive: 0

N=C(N)N
neuronal differentiation score ([1]; library: Spectrum): inactive: 0
dopaminergic neuron differentiation score ([2]; library: Spectrum): inactive: 0

CS(=O)(=O)c1ccc([C@@H](O)[C@@H](CO)NC(=O)C(Cl)Cl)cc1 [Thiamphenicol]
neuronal differentiation score ([1]; library: Prestwick): inactive: 0
dopaminergic neuron differentiation score ([2]; library: Prestwick): inactive: 0

CN(C)CCC(c1ccc(Cl)cc1)c1ccccn1 (stereo unspecified)
neuronal differentiation score ([1]; library: Spectrum): inactive: 0
dopaminergic neuron differentiation score ([2]; library: Spectrum): inactive: 0

C[n+]1cc2c3c(ccc2c2ccc4cc5c(cc4c21)OCO5)OCO3 [sanguinarine]
neuronal differentiation score ([1]; library: Natural): inactive: 0
dopaminergic neuron differentiation score ([2]; library: Natural): inactive: 0

N[C@@H](Cc1cc(-c2ccc(Cl)cc2Cl)cc(CP(=O)(O)O)c1O)C(=O)O
neuronal differentiation score ([1]; library: Tocriscreen): inactive: 0
dopaminergic neuron differentiation score ([2]; library: Tocriscreen): inactive: 0

COc1cccc2c1C(=O)c1c(O)c3c(c(O)c1C2=O)C[C@@](O)(C(=O)CO)C[C@@H]3O[C@H]1C[C@H](N)[C@@H](O)[C@H](C)O1
neuronal differentiation score ([1]; library: Spectrum): inactive: 0
dopaminergic neuron differentiation score ([2]; library: Spectrum): inactive: 0

CCc1c2c(nc3ccc(OC(=O)N4CCC(N5CCCCC5)CC4)cc13)-c1cc3c(c(=O)n1C2)COC(=O)[C@]3(O)CC [Irinotecan hydrochloride trihydrate]
neuronal differentiation score ([1]; library: Prestwick): inactive: 0
dopaminergic neuron differentiation score ([2]; library: Prestwick): inactive: 0

O=c1[nH]c(-c2ccccc2O)nc2ccccc12 [2-(2-hydroxy-phenyl)-3h-quinazolin-4-one]
neuronal differentiation score ([1]; library: Natural): inactive: -1
dopaminergic neuron differentiation score ([2]; library: Natural): inactive: 0

C[C@@H](CN1CCC(Cc2ccccc2)CC1)[C@@H](O)c1ccc(O)cc1 [Ro 25-6981 hydrochloride]
neuronal differentiation score ([1]; library: LOPAC): inactive: 0
dopaminergic neuron differentiation score ([2]; library: LOPAC): inactive: 0

CC[N+](CC)(CC)CC(=O)Nc1c(C)cccc1C [QX 314 bromide]
neuronal differentiation score ([1]; library: Tocriscreen): inactive: 0
dopaminergic neuron differentiation score ([2]; library: Tocriscreen): inactive: 0
